Test results: PMC10474030
Results are given in words; binding and its absence hold for the method and conditions named. In cells and extracts the contact can be indirect. Binding can be weak; no strength is given. Tags and fused reporters may be left off the sequences shown.

Molecular target: FLAG-tagged AMPKα
Assay: co-IP; HepG2 cells transfected with FLAG-tagged AMPKα and HA-tagged Thrap3 WT or deletion mutants; immunoprecipitated with an anti-FLAG antibody; immunoblot for FLAG and HA

binding: binds
B1: HA-tagged Thrap3 wild type (protein, UniProt Q9Y2W1 1-955)
chain: MSKTNKSKSGSRSSRSRSASRSRSRSFSKSRSRSRSLSRSRKRRLSSRSRSRSYSPAHNRERNHPRVYQNRDFRGHNRGYRRPYYFRGRNRGFYPWGQYNRGGYGNYRSNWQNYRQAYSPRRGRSRSRSPKRRSPSPRSRSHSRNSDKSSSDRSRRSSSSRSSSNHSRVESSKRKSAKEKKSSSKDSRPSQAAGDNQGDEAKEQTFSGGTSQDTKASESSKPWPDATYGTGSASRASAVSELSPRERSPALKSPLQSVVVRRRSPRPSPVPKPSPPLSSTSQMGSTLPSGAGYQSGTHQGQFDHGSGSLSPSKKSPVGKSPPSTGSTYGSSQKEESAASGGAAYTKRYLEEQKTENGKDKEQKQTNTDKEKIKEKGSFSDTGLGDGKMKSDSFAPKTDSEKPFRGSQSPKRYKLRDDFEKKMADFHKEEMDDQDKDKAKGRKESEFDDEPKFMSKVIGANKNQEEEKSGKWEGLVYAPPGKEKQRKTEELEEESFPERSKKEDRGKRSEGGHRGFVPEKNFRVTAYKAVQEKSSSPPPRKTSESRDKLGAKGDFPTGKSSFSITREAQVNVRMDSFDEDLARPSGLLAQERKLCRDLVHSNKKEQEFRSIFQHIQSAQSQRSPSELFAQHIVTIVHHVKEHHFGSSGMTLHERFTKYLKRGTEQEAAKNKKSPEIHRRIDISPSTFRKHGLAHDEMKSPREPGYKAEGKYKDDPVDLRLDIERRKKHKERDLKRGKSRESVDSRDSSHSRERSAEKTEKTHKGSKKQKKHRRARDRSRSSSSSSQSSHSYKAEEYTEETEEREESTTGFDKSRLGTKDFVGPSERGGGRARGTFQFRARGRGWGRGNYSGNNNNNSNNDFQKRNREEEWDPEYTPKSKKYYLHDDREGEGSDKWVSRGRGRGAFPRGRGRFMFRKSSTSPKWAHDKFSGEEGEIEDDESGTENREEKDNIQPTTE
